For the assay, the target named is Hansenula polymorpha Cdc13 (Hansenula polymorpha DL-1 (ATCC 26012, Ogataea parapolymorpha DL-1)) (UniProt W1QJ57). Put plainly: two-hybrid; Gal4-BD (pGBKT7) and Gal4-AD (pGADT7) fusions cotransformed into S. cerevisiae AH109; HIS3 reporter, growth on SC-Leu-Trp-His; 30°C for four days.

Results are given in words; binding and its absence hold for the method and conditions named. Some entries that bind do so weakly or less than the wild type.

B1: Hansenula polymorpha Cdc13 (protein, UniProt W1QJ57 1-403)
chain: MSQKSVDILRVRDLPVTTFTRKRIMGLVVGITTRDRPTKPIVVHMTDFSRNPSVAQSEMNYANCDPPLFDAPEQADSIIDVAFYPESVTHLKRIFGDKVNARWFDNRTASFYPLYQHATVISLRLRSKTWGDQIDLIADPGFSDNCYSQIWPVSTLEARDNPAAETIYDPNENNYALAREVFRDWQLQCSTYFKSNPKIKQVVGDLCESVTSMTYSPPQKLHRHTSPEQYSDTGFLSDMVSSDDEGPPKKEYKREVPVKQSRYVKDTPNVTFPVSQIPLADYTGAYFIYVQIMRLETRTADLIYKSFPENTIMTKAIDVLVKEVDSAATLRIRVEGYDLFRFAGITFRYPLLDMTAAEAETAKKLAALVHKPLRMLVKPYALPLEAATVNTGRCYRWLYTEYP
As to B1, the binding result is given as “binds”.

The values are drawn from paper PMC7245964.
